Results as given in the supplement of paper PMC6078165.
The reference is the same well before dosing, and untreated signal decays as well.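 Labels refer to human fibroblasts, largely primary: uterine (C12385, HUF), lung (H6013), bone (Hs27A), adrenal (HADF), skin (WS1), plus mammary HMF and breast cancer-associated Hs343T. Cancer lines are basal-like or mesenchymal-like triple-negative breast cancer. The paper counts as hits responses shifting over 3x the replicate standard deviation. The tissue of the other fibroblasts is not given here.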

Tested on: MDAMB436
Assay: relative JC-1 red fluorescence (viability) vs pre-drug, coculture with fibroblast (fraction); higher = more viable cancer cells
Details: 0.1 µM
Procedure: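 JC-1 labelled TNBC cells cocultured 1:1 (1,500 cells each) with CellTrace Violet stained primary or stromal fibroblasts in 384-well plates in FluoroBrite medium, treated with one of 42 anticancer drugs at 0.1, 1, 10 or 100 uM. JC-1 red fluorescence (mitochondrial integrity in cancer cells only) was read by plate reader every 8 h for 72 h. Values are normalised to each well's pre-drug value. The stock of one drug was tenfold lower, so its dose labels may be too high.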

Nc1ncn([C@@H]2O[C@H](CO)[C@@H](O)[C@H]2O)c(=O)n1 [Azacitidine]
relative JC-1 red fluorescence
Details | 8 h | 16 h | 24 h | 32 h | 40 h | 48 h | 56 h | 64 h | 72 h
coculture fibroblast: C12385 | 0.7609 | 0.721 | 0.697 | 0.623 | 0.59 | 0.581 | 0.577 | 0.571 | 0.587
coculture fibroblast: H6013 | 0.812 | 0.79 | 0.789 | 0.79 | 0.788 | 0.824 | 0.797 | 0.793 | 0.754
coculture fibroblast: H6019 | 0.7401 | 0.7131 | 0.686 | 0.617 | 0.589 | 0.567 | 0.541 | 0.51 | 0.49
coculture fibroblast: H6076 | 0.72 | 0.696 | 0.7246 | 0.708 | 0.727 | 0.717 | 0.757 | 0.766 | 0.759
coculture fibroblast: H6231 | 0.7 | 0.683 | 0.729 | 0.668 | 0.684 | 0.661 | 0.666 | 0.657 | 0.652
coculture fibroblast: HADF | 0.831 | 0.811 | 0.795 | 0.76 | 0.7501 | 0.77 | 0.729 | 0.725 | 0.692
coculture fibroblast: HCFa | 0.793 | 0.773 | 0.753 | 0.73 | 0.728 | 0.761 | 0.711 | 0.707 | 0.661
coculture fibroblast: HCPF | 0.749 | 0.7392 | 0.779 | 0.73 | 0.737 | 0.718 | 0.715 | 0.714 | 0.715
coculture fibroblast: HHSteC | 0.844 | 0.86 | 0.87 | 0.855 | 0.88 | 0.866 | 0.862 | 0.855 | 0.815
coculture fibroblast: HMF | 0.7678 | 0.744 | 0.757 | 0.722 | 0.726 | 0.71 | 0.74 | 0.731 | 0.735
coculture fibroblast: HPFa | 0.8426 | 0.8266 | 0.81437 | 0.7815 | 0.7935 | 0.8215 | 0.756 | 0.739 | 0.6762
coculture fibroblast: HUF | 0.78 | 0.706 | 0.658 | 0.589 | 0.537 | 0.517 | 0.501 | 0.486 | 0.482
coculture fibroblast: Hs5 | 0.7244 | 0.7273 | 0.745 | 0.708 | 0.73 | 0.713 | 0.747 | 0.727 | 0.739
coculture fibroblast: Hs27A | 0.776 | 0.77 | 0.773 | 0.763 | 0.758 | 0.839 | 0.754 | 0.752 | 0.688
coculture fibroblast: Hs343T | 0.749 | 0.721 | 0.725 | 0.69 | 0.697 | 0.68 | 0.691 | 0.691 | 0.695
coculture fibroblast: WS1 | 0.786 | 0.742 | 0.731 | 0.66 | 0.636 | 0.623 | 0.616 | 0.603 | 0.606
